Measured values published in the supplement of paper PMC10849652.
Some of the results follow.

Amino acid sequences for entries named in this document (tags omitted). A change or cut given only in a name is not applied to a line headed by its entry.
UniProt O15120: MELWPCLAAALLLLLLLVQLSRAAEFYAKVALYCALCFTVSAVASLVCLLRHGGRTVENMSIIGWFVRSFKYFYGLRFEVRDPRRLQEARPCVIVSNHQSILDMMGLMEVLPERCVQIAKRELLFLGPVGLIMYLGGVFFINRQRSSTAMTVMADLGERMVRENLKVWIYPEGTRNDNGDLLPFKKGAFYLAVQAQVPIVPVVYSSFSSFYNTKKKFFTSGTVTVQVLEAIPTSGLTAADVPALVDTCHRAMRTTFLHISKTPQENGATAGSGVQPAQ
UniProt Q8TED9: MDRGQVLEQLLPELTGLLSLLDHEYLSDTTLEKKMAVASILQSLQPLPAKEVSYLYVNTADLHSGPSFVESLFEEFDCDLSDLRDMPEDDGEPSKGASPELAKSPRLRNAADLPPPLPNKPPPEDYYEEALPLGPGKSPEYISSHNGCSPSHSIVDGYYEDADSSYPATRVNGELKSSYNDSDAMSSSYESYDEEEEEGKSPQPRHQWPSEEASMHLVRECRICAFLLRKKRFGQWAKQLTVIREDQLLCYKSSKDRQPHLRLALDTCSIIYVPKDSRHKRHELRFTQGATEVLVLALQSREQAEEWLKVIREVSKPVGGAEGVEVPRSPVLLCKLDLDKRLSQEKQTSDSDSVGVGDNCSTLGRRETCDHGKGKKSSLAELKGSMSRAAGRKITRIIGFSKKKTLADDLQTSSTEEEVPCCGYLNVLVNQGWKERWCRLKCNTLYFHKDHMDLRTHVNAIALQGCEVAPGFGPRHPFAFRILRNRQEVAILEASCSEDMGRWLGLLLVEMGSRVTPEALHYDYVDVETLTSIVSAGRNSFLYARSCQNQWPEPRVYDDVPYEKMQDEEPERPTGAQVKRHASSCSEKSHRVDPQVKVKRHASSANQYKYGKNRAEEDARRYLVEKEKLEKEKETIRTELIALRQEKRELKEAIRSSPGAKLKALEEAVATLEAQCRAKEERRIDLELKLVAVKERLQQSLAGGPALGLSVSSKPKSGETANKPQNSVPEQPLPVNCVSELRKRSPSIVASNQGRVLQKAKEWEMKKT
UniProt O43572: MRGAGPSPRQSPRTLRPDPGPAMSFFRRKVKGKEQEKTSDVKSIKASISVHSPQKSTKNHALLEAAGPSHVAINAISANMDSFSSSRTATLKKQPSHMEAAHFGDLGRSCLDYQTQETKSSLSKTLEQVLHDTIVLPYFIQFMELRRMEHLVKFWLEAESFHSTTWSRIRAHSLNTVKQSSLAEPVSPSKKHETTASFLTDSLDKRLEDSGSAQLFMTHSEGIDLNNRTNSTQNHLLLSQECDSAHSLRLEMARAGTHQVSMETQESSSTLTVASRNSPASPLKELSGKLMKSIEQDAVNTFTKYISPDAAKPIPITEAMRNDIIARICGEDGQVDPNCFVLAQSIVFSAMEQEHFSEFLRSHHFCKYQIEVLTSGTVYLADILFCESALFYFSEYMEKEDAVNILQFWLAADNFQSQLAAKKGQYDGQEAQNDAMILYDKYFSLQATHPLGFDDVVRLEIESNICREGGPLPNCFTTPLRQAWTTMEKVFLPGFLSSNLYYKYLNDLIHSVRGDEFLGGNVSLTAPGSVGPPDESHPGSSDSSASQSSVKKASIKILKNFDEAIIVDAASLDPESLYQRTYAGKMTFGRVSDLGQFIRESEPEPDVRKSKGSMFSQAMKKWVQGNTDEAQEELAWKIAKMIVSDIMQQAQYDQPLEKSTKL
UniProt Q04828: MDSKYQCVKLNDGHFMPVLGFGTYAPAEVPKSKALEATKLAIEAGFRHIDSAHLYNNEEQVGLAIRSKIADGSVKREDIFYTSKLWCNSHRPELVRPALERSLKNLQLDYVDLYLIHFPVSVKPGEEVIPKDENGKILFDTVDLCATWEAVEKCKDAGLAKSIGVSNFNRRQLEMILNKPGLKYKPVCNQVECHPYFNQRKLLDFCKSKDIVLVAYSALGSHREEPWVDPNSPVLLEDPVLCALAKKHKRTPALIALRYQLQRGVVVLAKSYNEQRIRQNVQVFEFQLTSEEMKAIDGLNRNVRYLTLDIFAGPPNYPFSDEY
UniProt O00170: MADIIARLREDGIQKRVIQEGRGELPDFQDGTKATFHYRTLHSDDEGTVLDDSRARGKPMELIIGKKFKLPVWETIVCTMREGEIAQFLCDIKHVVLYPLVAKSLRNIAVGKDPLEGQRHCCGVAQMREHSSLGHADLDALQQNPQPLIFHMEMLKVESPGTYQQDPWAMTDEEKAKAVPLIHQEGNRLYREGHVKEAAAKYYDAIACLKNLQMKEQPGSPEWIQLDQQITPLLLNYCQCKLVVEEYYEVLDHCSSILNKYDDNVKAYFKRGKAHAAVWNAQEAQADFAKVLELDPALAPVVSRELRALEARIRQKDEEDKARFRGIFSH
UniProt Q6UY14: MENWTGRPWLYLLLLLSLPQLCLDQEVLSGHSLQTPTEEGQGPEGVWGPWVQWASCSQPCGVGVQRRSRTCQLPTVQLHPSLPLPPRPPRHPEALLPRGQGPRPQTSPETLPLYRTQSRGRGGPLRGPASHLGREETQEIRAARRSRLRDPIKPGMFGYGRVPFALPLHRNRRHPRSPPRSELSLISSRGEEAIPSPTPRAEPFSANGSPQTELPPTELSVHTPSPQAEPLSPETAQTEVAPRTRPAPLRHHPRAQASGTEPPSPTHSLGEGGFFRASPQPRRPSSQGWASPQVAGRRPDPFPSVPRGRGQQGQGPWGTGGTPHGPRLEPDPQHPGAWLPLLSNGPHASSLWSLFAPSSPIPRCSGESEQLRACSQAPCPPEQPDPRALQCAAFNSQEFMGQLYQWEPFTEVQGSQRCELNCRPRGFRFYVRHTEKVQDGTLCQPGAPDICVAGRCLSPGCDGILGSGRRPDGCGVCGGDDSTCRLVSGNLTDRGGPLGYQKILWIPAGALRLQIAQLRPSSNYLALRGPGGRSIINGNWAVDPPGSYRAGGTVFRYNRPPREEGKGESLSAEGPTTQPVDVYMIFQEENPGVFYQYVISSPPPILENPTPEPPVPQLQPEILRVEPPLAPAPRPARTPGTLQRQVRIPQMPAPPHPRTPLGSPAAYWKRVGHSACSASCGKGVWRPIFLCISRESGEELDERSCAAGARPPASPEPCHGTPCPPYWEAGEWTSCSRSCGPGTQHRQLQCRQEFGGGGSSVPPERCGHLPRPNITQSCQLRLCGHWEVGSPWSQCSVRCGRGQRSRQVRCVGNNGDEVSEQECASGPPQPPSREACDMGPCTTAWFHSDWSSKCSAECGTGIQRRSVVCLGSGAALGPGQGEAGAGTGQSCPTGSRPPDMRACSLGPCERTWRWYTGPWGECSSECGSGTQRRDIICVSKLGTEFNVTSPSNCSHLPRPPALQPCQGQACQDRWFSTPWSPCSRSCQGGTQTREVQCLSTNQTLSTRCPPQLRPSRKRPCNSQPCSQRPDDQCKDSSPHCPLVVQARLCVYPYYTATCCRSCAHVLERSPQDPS
UniProt P35611: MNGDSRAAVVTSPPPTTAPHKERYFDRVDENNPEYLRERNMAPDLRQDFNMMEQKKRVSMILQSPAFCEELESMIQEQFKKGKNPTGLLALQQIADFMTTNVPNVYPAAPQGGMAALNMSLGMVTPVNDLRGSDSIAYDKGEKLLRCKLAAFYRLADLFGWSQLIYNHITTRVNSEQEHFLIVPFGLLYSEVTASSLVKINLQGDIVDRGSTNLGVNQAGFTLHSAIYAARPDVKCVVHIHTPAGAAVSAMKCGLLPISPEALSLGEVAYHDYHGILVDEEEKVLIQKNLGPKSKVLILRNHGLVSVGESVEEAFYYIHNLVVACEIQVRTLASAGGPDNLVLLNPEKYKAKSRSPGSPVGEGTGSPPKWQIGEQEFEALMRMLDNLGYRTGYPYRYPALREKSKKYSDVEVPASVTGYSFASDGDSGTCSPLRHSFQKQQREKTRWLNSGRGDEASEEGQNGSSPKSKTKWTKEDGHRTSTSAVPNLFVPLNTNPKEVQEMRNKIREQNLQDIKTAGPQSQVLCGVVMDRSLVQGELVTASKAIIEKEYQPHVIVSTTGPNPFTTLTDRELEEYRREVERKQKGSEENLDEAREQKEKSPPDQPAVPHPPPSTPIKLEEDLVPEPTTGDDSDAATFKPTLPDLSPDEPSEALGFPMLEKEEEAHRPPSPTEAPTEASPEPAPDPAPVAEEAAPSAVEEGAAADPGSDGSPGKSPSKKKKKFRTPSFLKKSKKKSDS
UniProt Q9UPQ3: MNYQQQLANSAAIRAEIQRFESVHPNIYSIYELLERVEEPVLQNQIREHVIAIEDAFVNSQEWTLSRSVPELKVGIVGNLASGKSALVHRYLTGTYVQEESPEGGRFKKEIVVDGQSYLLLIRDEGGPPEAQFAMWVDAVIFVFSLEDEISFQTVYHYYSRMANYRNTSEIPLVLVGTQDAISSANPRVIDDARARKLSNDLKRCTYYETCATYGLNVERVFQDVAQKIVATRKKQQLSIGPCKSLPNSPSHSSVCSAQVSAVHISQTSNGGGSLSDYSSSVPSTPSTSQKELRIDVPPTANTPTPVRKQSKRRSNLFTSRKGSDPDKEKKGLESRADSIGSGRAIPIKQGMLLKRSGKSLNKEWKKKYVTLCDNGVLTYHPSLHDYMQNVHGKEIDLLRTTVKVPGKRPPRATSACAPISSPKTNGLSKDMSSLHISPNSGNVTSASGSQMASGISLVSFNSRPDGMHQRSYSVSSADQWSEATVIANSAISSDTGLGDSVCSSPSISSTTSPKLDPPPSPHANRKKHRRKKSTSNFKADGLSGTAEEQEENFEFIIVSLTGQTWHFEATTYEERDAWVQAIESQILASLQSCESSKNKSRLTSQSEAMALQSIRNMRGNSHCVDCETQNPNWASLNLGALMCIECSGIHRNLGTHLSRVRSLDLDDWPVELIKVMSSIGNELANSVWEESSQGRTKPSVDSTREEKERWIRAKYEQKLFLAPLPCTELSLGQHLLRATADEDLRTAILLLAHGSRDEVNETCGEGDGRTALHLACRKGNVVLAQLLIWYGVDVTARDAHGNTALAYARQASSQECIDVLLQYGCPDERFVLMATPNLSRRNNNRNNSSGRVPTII
UniProt Q03154: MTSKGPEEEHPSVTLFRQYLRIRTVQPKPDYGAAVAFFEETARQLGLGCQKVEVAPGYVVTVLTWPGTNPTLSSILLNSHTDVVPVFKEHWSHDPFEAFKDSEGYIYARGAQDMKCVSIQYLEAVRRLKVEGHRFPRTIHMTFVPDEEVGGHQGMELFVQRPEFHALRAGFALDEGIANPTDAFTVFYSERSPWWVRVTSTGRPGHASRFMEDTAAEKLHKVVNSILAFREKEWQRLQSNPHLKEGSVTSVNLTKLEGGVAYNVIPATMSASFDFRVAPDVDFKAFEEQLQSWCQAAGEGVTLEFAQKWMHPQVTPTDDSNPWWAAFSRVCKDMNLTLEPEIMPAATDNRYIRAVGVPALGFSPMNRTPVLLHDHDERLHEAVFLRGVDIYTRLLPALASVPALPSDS
UniProt O95081: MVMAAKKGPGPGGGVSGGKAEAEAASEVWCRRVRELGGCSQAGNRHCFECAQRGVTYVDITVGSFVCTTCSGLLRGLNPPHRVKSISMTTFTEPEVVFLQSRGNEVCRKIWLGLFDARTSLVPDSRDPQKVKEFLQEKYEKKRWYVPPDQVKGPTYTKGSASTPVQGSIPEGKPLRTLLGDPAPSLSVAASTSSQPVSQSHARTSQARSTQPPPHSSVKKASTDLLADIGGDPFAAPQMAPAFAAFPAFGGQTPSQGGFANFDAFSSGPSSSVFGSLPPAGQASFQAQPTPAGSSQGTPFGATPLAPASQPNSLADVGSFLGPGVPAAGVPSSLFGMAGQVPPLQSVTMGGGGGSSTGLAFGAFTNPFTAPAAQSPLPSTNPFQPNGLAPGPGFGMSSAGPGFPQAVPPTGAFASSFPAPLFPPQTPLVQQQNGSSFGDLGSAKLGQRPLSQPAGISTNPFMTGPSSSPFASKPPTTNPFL

How the values were obtained:
Assay in all cases: log2 fold change, soluble protein after heating vs DMSO (PISA); higher = thermal stabilisation; K562 lysate, 10 uM; active = over 0.2 and 3.5 SD of the protein, either way, in both replicates (recomputed)
erlotinib = compound: C#Cc1cccc(Nc2ncnc3cc(OCCOC)c(OCCOC)cc23)c1 [erlotinib]
Summary of the method: (§1)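 Quantification was by TMTpro 16plex LC-MS/MS with equalised channel sums, applied to the supernatant after 21,000xg for 90 min. Samples were crude K562 extract at 1 mg/mL protein in PBS pH 7.4 with 1 mM MgCl2, treated with 10 μM compound for 30 min, heated for 3 min across 48°C-58°C, pooled and brought to 0.5% NP-40 at 4°C. Values are log-two fold changes in thermal stability relative to solvent controls, from duplicates.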

[1] = compound: C/C(=N\NC(=O)C1=CC(=CC=C1)S(=O)(=O)N2CCOCC2)/C3=C(C=CC(=C3)Cl)O
Summary of the method: as §1

[2] = compound: C1=CC(=CC=C1C2=NC3=C(N2)C=C(C=C3)C(=O)N)OC4=CC=C(C=C4)Cl
Summary of the method: as §1

[3] = compound: C1=CC2=C(C=CC(=C2)/C=C\3/C(=O)NC(=NCC4=CC=CS4)S3)N=C1
Summary of the method: as §1

[4] = compound: C1=CC2=NC=CN=C2C=C1/C=C/3\C(=O)NC(=O)S3
Summary of the method: as §1

[5] = compound: C1=CC=C(C=C1)C2=NC(=C(N2)C3=CC=NC=C3)C4=CC(=C(C=C4)Cl)O
Summary of the method: as §1

[6] = compound: C1=CC=C2C(=C1)C3=NNC4=CC=CC(=C43)C2=O
Summary of the method: as §1

[7] = compound: C1CCN(C1)C(=O)NC2=CC=CC(=C2)NC3=NC=C(C(=N3)NCCC4=CN=CN4)Br
Summary of the method: as §1

[8] = compound: C1CN(CCC1(CC2=CC=C(C=C2)Cl)N)C3=NC=NC4=C3C=CN4
Summary of the method: as §1

IRAK-1-4 Inhibitor I = compound: C1COCCN1CCN2C3=CC=CC=C3N=C2NC(=O)C4=CC(=CC=C4)[N+](=O)[O-] [IRAK-1-4 Inhibitor I]
Summary of the method: as §1

ibrutinib = compound: C=CC(=O)N1CCC[C@@H](n2nc(-c3ccc(Oc4ccccc4)cc3)c3c(N)ncnc32)C1 [ibrutinib]
Summary of the method: as §1

[9] = compound: CC(=O)c1cnc2ccc(-c3cc(Cl)c(O)c(Cl)c3)nc2c1N[C@H]1CC[C@H](CN(C)C)CC1
Summary of the method: as §1

ralimetinib = compound: CC(C)(C)Cn1c(N)nc2ccc(-c3[nH]c(C(C)(C)C)nc3-c3ccc(F)cc3)nc21 [ralimetinib]
Summary of the method: as §1

[10] = compound: CC(C)(O)CC(=O)NCCn1ccc2ncnc(Nc3ccc(Oc4cccc(C(F)(F)F)c4)c(Cl)c3)c21
Summary of the method: as §1

[11] = compound: CC(C)C1=C2N=C(C=C(N2N=C1)NCC3=CC=CC=C3)NCCCCCCN
Summary of the method: as §1

[12] = compound: CC1=C(C(CC(=O)N1)C2=CC=C(C=C2)C(F)(F)F)C(=O)NC3=C(C=C4C(=C3)C=NN4)F
Summary of the method: as §1

[13] = compound: CC1=C(C2=C(C=C1)C(=O)C3=CC=CC=C3N2CCCN)C
Summary of the method: as §1

[14] = compound: CC1=C(C=C(C=C1)NC(=O)C2=CC(=CC=C2)C(C)(C)C#N)NC3=CC4=C(C=C3)N=CN(C4=O)C
Summary of the method: as §1

[15] = compound: CC1=C(C=C(C=C1)NC(=O)C2=CC(=CC=C2)N(C)C)NC(=O)C3=CC=C(C=C3)O
Summary of the method: as §1

[16] = compound: CC1=CC=C(C=C1)SC2=C3C=C(SC3=CN=C2)C(=O)N
Summary of the method: as §1

Measured: log2 fold change

AGO3 (UniProt Q9H9G7)
inactive: erlotinib -0.021 | [1] -0.039 | [2] 0.005 | [3] -0.009 | [4] 0.027 | [5] 0.011 | [6] -0.052 | [7] -0.011 | [8] 0.01 | IRAK-1-4 Inhibitor I 0.016 | ibrutinib -0.017 | [9] 0.018 | ralimetinib 0.006 | [10] -0.105 | [11] -0.006 | [12] 0.048 | [13] -0.025 | [14] -0.04 | [15] 0.002 | [16] 0.002

AGPAT2 (UniProt O15120)
inactive: erlotinib -0.032 | [1] -0.064 | [2] 0.013 | [3] 0.245 | [5] -0.114 | [6] 0.024 | [7] -0.038 | [8] 0.069 | IRAK-1-4 Inhibitor I -0.027 | ralimetinib 0.1 | [10] -0.071 | [11] 0.046 | [12] 0.03 | [14] -0.064 | [15] 0.013

AFAP1L1 (UniProt Q8TED9)
inactive: erlotinib 0.015 | [2] 0.044 | [4] -0.089 | [7] -0.072 | [8] 0.114 | ibrutinib 0.098 | [9] -0.099 | [11] 0.047 | [13] -0.032 | [14] -0.136 | [16] -0.116

Pulled one by one from the list above, 2 records:
AGPAT2 (UniProt O15120)
inactive: erlotinib -0.032 | [1] -0.064 | [2] 0.013 | [3] 0.245 | [5] -0.114 | [6] 0.024 | [7] -0.038 | [8] 0.069 | IRAK-1-4 Inhibitor I -0.027 | ralimetinib 0.1 | [10] -0.071 | [11] 0.046 | [12] 0.03 | [14] -0.064 | [15] 0.013

AGO3 (UniProt Q9H9G7)
inactive: erlotinib -0.021 | [1] -0.039 | [2] 0.005 | [3] -0.009 | [4] 0.027 | [5] 0.011 | [6] -0.052 | [7] -0.011 | [8] 0.01 | IRAK-1-4 Inhibitor I 0.016 | ibrutinib -0.017 | [9] 0.018 | ralimetinib 0.006 | [10] -0.105 | [11] -0.006 | [12] 0.048 | [13] -0.025 | [14] -0.04 | [15] 0.002 | [16] 0.002

The list goes on.

AKAP10 (UniProt O43572)
inactive: erlotinib -0.028 | [2] -0.077 | [4] -0.048 | [5] 0.032 | [7] -0.004 | [8] -0.127 | IRAK-1-4 Inhibitor I 0.012 | ibrutinib -0.054 | [9] 0.064 | ralimetinib 0 | [10] 0.033 | [11] 0.075 | [12] 0.125 | [13] 0.108 | [14] 0.008 | [15] 0 | [16] -0.035

AKR1C1 (UniProt Q04828)
inactive: erlotinib 0.082 | [1] 0.067 | [2] -0.031 | [3] -0.113 | [5] 0.05 | [6] -0.112 | [7] 0.018 | [8] -0.001 | IRAK-1-4 Inhibitor I -0.062 | [9] -0.038 | ralimetinib -0.116 | [10] 0.02 | [11] 0.065 | [13] -0.21 | [15] 0.001 | [16] -0.012

AIP (UniProt O00170)
inactive: erlotinib -0.006 | [1] -0.032 | [2] -0.015 | [3] -0.004 | [4] -0.012 | [5] 0.018 | [6] 0.026 | [7] -0.002 | [8] 0.016 | IRAK-1-4 Inhibitor I -0.012 | ibrutinib 0.019 | [9] -0.004 | ralimetinib -0.022 | [10] -0.003 | [11] -0.012 | [12] -0.011 | [13] -0.017 | [14] 0.011 | [15] 0 | [16] -0.023

ADAMTSL4 isoform 3 (UniProt Q6UY14)
inactive: erlotinib -0.096 | [2] 0.032 | [4] 0.021 | [5] 0.023 | IRAK-1-4 Inhibitor I -0.052 | ibrutinib -0.073 | [9] 0.021 | ralimetinib 0.012 | [10] -0.058 | [11] 0.069 | [12] -0.074 | [13] 0.041 | [14] -0.052 | [15] 0.022 | [16] -0.041

ACTR3 (UniProt P61158)
inactive: erlotinib -0.018 | [1] -0.009 | [2] 0.015 | [3] 0.003 | [4] -0.008 | [5] -0.006 | [6] -0.023 | [7] -0.012 | [8] -0.01 | IRAK-1-4 Inhibitor I 0.027 | ibrutinib 0.009 | [9] -0.009 | ralimetinib 0.042 | [10] 0.015 | [11] -0.013 | [12] 0.007 | [13] 0.056 | [14] -0.022 | [15] 0.006 | [16] -0.013

ADD1 isoform 4 (UniProt P35611)
inactive: erlotinib -0.016 | [1] -0.059 | [2] 0.011 | [3] 0.089 | [4] -0.088 | [5] -0.081 | [6] -0.025 | [7] 0.028 | [8] -0.009 | IRAK-1-4 Inhibitor I 0.093 | ibrutinib 0.214 | [9] 0.003 | ralimetinib -0.104 | [10] -0.356 | [11] 0.056 | [13] 0.004 | [15] 0.017 | [16] -0.341

AGAP1 (UniProt Q9UPQ3)
inactive: erlotinib -0.015 | [1] -0.08 | [2] 0.002 | [3] -0.074 | [4] -0.018 | [5] 0.02 | [6] 0.113 | IRAK-1-4 Inhibitor I -0.014 | ibrutinib -0.003 | [9] -0.005 | ralimetinib 0.032 | [10] 0.044 | [11] -0.011 | [12] 0.011 | [13] 0.17 | [14] 0.058 | [15] 0.004 | [16] -0.003

ACY1 (UniProt Q03154)
inactive: erlotinib -0.032 | [1] 0.01 | [2] -0.01 | [3] 0.01 | [4] 0.009 | [5] -0.015 | [6] 0.059 | [7] 0.002 | [8] -0.017 | IRAK-1-4 Inhibitor I -0.008 | ibrutinib 0.057 | [9] 0.009 | ralimetinib 0.027 | [10] 0.022 | [11] 0.005 | [12] -0.013 | [13] 0.042 | [14] -0.036 | [15] -0.02 | [16] -0.011

ACTN2, A0A494C031
inactive: erlotinib -0.005 | [1] -0.351 | [2] 0.124 | [3] -0.081 | [4] 0.026 | [5] -0.059 | [6] -0.066 | [7] -0.087 | [8] -0.017 | IRAK-1-4 Inhibitor I 0.153 | ibrutinib 0.042 | [9] -0.008 | ralimetinib -0.121 | [10] -0.549 | [11] -0.132 | [12] 0.155 | [14] -0.003 | [15] -0.118 | [16] -0.056

AHI1 (UniProt Q8N157)
inactive: erlotinib -0.098 | [1] 0.068 | [2] -0.264 | [3] 0.031 | [6] -0.312 | [7] -0.036 | [8] 0 | [11] 0.024

AGFG2 (UniProt O95081)
inactive: erlotinib 0.008 | [1] -0.201 | [2] 0.158 | [3] -0.044 | [5] -0.031 | [6] 0.035 | [7] 0.01 | [8] 0.04 | IRAK-1-4 Inhibitor I -0.04 | [9] 0.202 | ralimetinib 0.11 | [10] 0.117 | [11] -0.244 | [13] 0 | [14] -0.088 | [15] -0.067 | [16] 0
